No constants are given. Whether binding was seen depends on the method and setting. A result given as binding can be weak or reduced; the word gives no strength. For part of these data: Binding seen in cells or lysates may run through a third protein.
Legend:
[1] = target: Strep-tagged Bfr1 of MSR-1, coexpressed with His-tagged Bfr2 from pET-51b-Bfr12 (Magnetospirillum gryphiswaldense MSR-1); assay: pull-down; Strep tag affinity purification of Strep-tagged Bfr1 from E. coli Rosetta(DE3)pLysS coexpressing His-tagged Bfr2 (pET-51b-Bfr12); Coomassie-stained SDS-PAGE
[2] = target: Strep-tagged Bfr1 of MSR-1, coexpressed with His-tagged Bfr2 from pET-51b-Bfr12 (Magnetospirillum gryphiswaldense MSR-1); assay: native gel or EMSA; BN-PAGE of purified proteins on polyacrylamide gradient gels, run at 4°C, Coomassie stained; Bfr2 and Bfr12 ~22 μM, Bfr1 ~30 μM in 50 mM Tris-HCl, 50 mM NaCl, pH 8.0, or Bfr12 dialysed against 50 mM imidazole-HCl, 50 mM NaCl, pH 7; for Bfr12 also a second dimension of SDS-PAGE (2D-BN/SDS-PAGE); both purified
[3] = target: His-tagged Bfr2 of MSR-1, coexpressed with Strep-tagged Bfr1 from pET-51b-Bfr12 (Magnetospirillum gryphiswaldense MSR-1); assay: pull-down; tandem affinity purification: Strep-tag eluate then purified by the His-tagged Bfr2 on Ni-NTA; Coomassie-stained SDS-PAGE

The chains behind the UniProt entries cited, without tags or fusion partners. Where a name states a change or a piece, a line headed by the entry shows the natural chain unless it says otherwise.
UniProt A0ACM8UJ62: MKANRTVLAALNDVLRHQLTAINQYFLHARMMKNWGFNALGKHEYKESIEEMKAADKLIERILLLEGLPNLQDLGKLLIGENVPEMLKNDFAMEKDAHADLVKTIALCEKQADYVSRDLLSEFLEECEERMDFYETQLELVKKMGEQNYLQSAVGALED
UniProt A0ACM8UIY5: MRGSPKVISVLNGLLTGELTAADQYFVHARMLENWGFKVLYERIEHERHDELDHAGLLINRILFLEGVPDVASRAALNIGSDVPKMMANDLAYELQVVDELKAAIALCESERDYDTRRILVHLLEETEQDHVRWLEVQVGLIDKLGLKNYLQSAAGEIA

Row | binding [1] | binding [2] | binding [3] | Substance
1 | binds | binds | – | His-tagged Bfr2 of MSR-1, coexpressed with Strep-tagged Bfr1 from pET-51b-Bfr12 (from UniProt A0ACM8UJ62 1-159)
2 | – | – | binds | Strep-tagged Bfr1 of MSR-1, coexpressed with His-tagged Bfr2 from pET-51b-Bfr12 (from UniProt A0ACM8UIY5)

From publication PMC6529640, “Bacterioferritin of Magnetospirillum gryphiswaldense Is a Heterotetraeicosameric Complex Composed of Functionally Distinct Subunits but Is Not Involved in Magnetite Biomineralization” (mBio, 2019)
